PubChem BioAssay AID1259327 – Drosophila RNAi Screening Center | 2017

Aim: 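Knock-downs altering cellular ATP with no metal added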
Cell system: Drosophila S2R+ cells
Reagents: long dsRNA against Drosophila genes
Timing: 5 days (water added on day 4, read one day later)
Conditions: water added as vehicle, no metal, one day before read-out
Measured: 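Total ATP measured by luciferase light, scaled to plate mean, duplicates averaged, then z-scored across plates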
Direction: ATP z-score: higher = more total ATP than typical wells; ATP luminescence: higher = more total ATP
Call rule: 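a hit is any knock-down whose absolute ATP z-score is greater than 1.5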
Meaning of the calls: active = hit: ATP up or down; inactive = no clear ATP change
In all, the deposit lists about 3,100 reagents; shown is a part drawn at random. 378 of all reagents (12%) count as active. 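Hits include both directions; z-score sign shows ATP rise or fall; raw luminescence values are not plate-normalised.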 Not stated in the record: the amount of reagent.

gene,dsRNA,"ATP z-score, duplicate mean","ATP luminescence, replicate 1 (RLU)","ATP luminescence, replicate 2 (RLU)",activity call
Ir75b (Ionotropic receptor 75b),DRSC10189,0.707,1.04e6,9.38e5,inactive
Tsp42Eq (Tetraspanin 42Eq),DRSC06180,-0.22,6.19e5,5.80e5,inactive
Cad87A (Cadherin 87A),DRSC16161,0.88,8.10e5,7.83e5,inactive
Cad87A (Cadherin 87A),DRSC29158,-0.323,8.45e5,7.29e5,inactive
ND-MWFE (NADH dehydrogenase (ubiquinone) MWFE subunit),DRSC06364,-0.714,6.66e5,6.64e5,inactive
CG43373,DRSC09869,-0.62,8.33e5,7.97e5,inactive
pll (pelle),DRSC17026,0.0727,7.07e5,7.19e5,inactive
pll (pelle),DRSC28551,-0.165,8.07e5,7.98e5,inactive
Yip1d1 (Yip1 domain-containing 1),DRSC02166,-0.528,6.74e5,6.67e5,inactive
CG42287,DRSC39820,-1.58,3.44e5,3.95e5,active
CG13810,DRSC22838,1.35,6.15e5,7.73e5,inactive
CG13810,DRSC27859,1.1,8.91e5,9.23e5,inactive
Ykt6 (YKT6 v-SNARE),DRSC26017,0.0703,8.42e5,8.76e5,inactive
Egfr (Epidermal growth factor receptor),DRSC03871,0.35,7.18e5,8.47e5,inactive
Egfr (Epidermal growth factor receptor),DRSC04613,1.44,8.90e5,8.79e5,inactive
Egfr (Epidermal growth factor receptor),DRSC36621,-1.51,4.60e5,4.44e5,active
Egfr (Epidermal growth factor receptor),DRSC36622,1.61,6.71e5,7.61e5,active
CG7514,DRSC08597,0.155,9.03e5,9.28e5,inactive
CG7514,DRSC25670,2.69,8.03e5,1.57e6,active
Sh (Shaker),DRSC19785,-0.619,6.69e5,6.82e5,inactive
Sh (Shaker),DRSC20055,-0.483,7.11e5,6.47e5,inactive
Sh (Shaker),DRSC25790,-0.373,8.16e5,7.91e5,inactive
CG18281,DRSC11742,0.88,9.04e5,7.44e5,inactive
CG18281,DRSC39875,0.022,5.64e5,6.10e5,inactive
hec (hector),DRSC19895,1.34,6.30e5,6.90e5,inactive
hec (hector),DRSC39722,1.23,6.28e5,4.66e5,inactive
GluRIIC (Glutamate receptor IIC),DRSC00642,0.828,4.98e5,5.79e5,inactive
Gr8a (Gustatory receptor 8a),DRSC18043,-0.541,7.36e5,7.41e5,inactive
AQP (aquaporin),DRSC06122,1.69,8.97e5,6.48e5,active
AQP (aquaporin),DRSC39533,0.701,4.77e5,5.20e5,inactive
CG4576,DRSC15604,-1.01,2.70e5,6.10e5,inactive
CG4576,DRSC26364,0.00672,8.86e5,8.16e5,inactive
LBR (Lamin B receptor),DRSC04298,-0.0444,6.67e5,7.87e5,inactive
LBR (Lamin B receptor),DRSC29462,-0.777,7.60e5,7.01e5,inactive
CG14694,DRSC14917,-0.162,3.08e5,7.04e5,inactive
TM9SF4 (Transmembrane 9 superfamily protein member 4),DRSC01888,1.48,6.30e5,5.31e5,inactive
TM9SF4 (Transmembrane 9 superfamily protein member 4),DRSC39660,0.487,4.95e5,5.02e5,inactive

Entries above whose gene name begins with H or h:
gene,dsRNA,"ATP z-score, duplicate mean","ATP luminescence, replicate 1 (RLU)","ATP luminescence, replicate 2 (RLU)",activity call
hec (hector),DRSC19895,1.34,6.30e5,6.90e5,inactive
hec (hector),DRSC39722,1.23,6.28e5,4.66e5,inactive

Continued:
gene,dsRNA,"ATP z-score, duplicate mean","ATP luminescence, replicate 1 (RLU)","ATP luminescence, replicate 2 (RLU)",activity call
Or69a (Odorant receptor 69a),DRSC11243,-0.392,8.49e5,8.40e5,inactive
Or69a (Odorant receptor 69a),DRSC25967,0.0852,8.19e5,9.03e5,inactive
Or85e (Odorant receptor 85e),DRSC16768,0.71,3.33e5,8.33e5,inactive
Fili (Fish-lips),DRSC03907,-0.582,6.78e5,6.81e5,inactive
Fili (Fish-lips),DRSC04132,-0.219,6.87e5,7.18e5,inactive
Fili (Fish-lips),DRSC04445,0.377,7.56e5,7.76e5,inactive
CG6974,DRSC16160,0.575,2.74e5,9.55e5,inactive
GluRIA (Glutamate receptor IA),DRSC11176,-0.102,9.14e5,8.52e5,inactive
CG31183,DRSC14403,-0.128,2.94e5,7.45e5,inactive
CG31183,DRSC15554,-0.517,6.24e5,6.79e5,inactive
frac (faulty attraction),DRSC10867,0.519,8.30e5,7.41e5,inactive
frac (faulty attraction),DRSC29239,0.582,9.66e5,8.26e5,inactive
CG8046,DRSC07059,0.246,7.98e5,7.15e5,inactive
CG10073,DRSC05961,2.31,8.60e5,7.97e5,active
Or10a (Odorant receptor 10a),DRSC20264,-0.102,6.91e5,7.67e5,inactive
Or10a (Odorant receptor 10a),DRSC27634,-1.06,9.32e5,9.98e5,inactive
GPHR (Golgi pH Regulator),DRSC07075,1.95,7.74e5,8.18e5,active
GPHR (Golgi pH Regulator),DRSC39570,0.934,4.96e5,5.63e5,inactive
CG31454,DRSC22801,-1.06,5.77e5,4.02e5,inactive
CG31454,DRSC24377,1.04,9.68e5,9.30e5,inactive
CG14194,DRSC19549,1.8,7.92e5,1.09e6,active
Spp (Signal peptide peptidase),DRSC00328,-0.33,5.27e5,3.79e5,inactive
CG34433,DRSC15077,-1.1,5.66e5,7.62e5,inactive
VGlut (Vesicular glutamate transporter),DRSC21821,-1.14,4.83e5,4.84e5,inactive
VGlut (Vesicular glutamate transporter),DRSC39749,0.0249,4.54e5,4.81e5,inactive
Gr61a (Gustatory receptor 61a),DRSC08358,-1.17,4.91e5,5.36e5,inactive
Gr61a (Gustatory receptor 61a),DRSC39830,-0.628,3.87e5,4.87e5,inactive
botv,DRSC05949,-3.39,3.24e5,4.16e5,active
botv,DRSC28034,-0.573,5.46e5,9.31e5,inactive
rho-7 (rhomboid-7),DRSC07304,0.677,7.94e5,5.67e5,inactive
aph-1 (anterior pharynx defective 1),DRSC00547,0.0577,4.79e5,4.88e5,inactive
aph-1 (anterior pharynx defective 1),DRSC39729,-0.141,4.67e5,4.44e5,inactive
"Itpr (Inositol 1,4,5,-trisphosphate receptor)",DRSC12354,0.415,9.74e5,9.28e5,inactive
"Itpr (Inositol 1,4,5,-trisphosphate receptor)",DRSC28770,-1.31,6.84e5,6.49e5,inactive
Hgsnat (Heparan-alpha-glucosaminide N-acetyltransferase),DRSC18405,0.445,7.59e5,7.45e5,inactive
Hgsnat (Heparan-alpha-glucosaminide N-acetyltransferase),DRSC24716,-0.481,8.04e5,7.77e5,inactive
ppk16 (pickpocket 16),DRSC02736,0.0634,7.34e5,7.32e5,inactive
Ir60b (Ionotropic receptor 60b),DRSC04217,0.197,7.85e5,7.10e5,inactive
Msp300 (Muscle-specific protein 300 kDa),DRSC00856,-0.504,6.35e5,7.44e5,inactive
Msp300 (Muscle-specific protein 300 kDa),DRSC00858,0.231,7.16e5,8.23e5,inactive
Msp300 (Muscle-specific protein 300 kDa),DRSC03369,1.53,5.33e5,6.43e5,active
Msp300 (Muscle-specific protein 300 kDa),DRSC03370,1.4,8.79e5,8.70e5,inactive
CG32512,DRSC20519,-2.59,4.69e5,6.68e5,active
CG32512,DRSC21401,-2.39,3.92e5,3.62e5,active
lbm (late bloomer),DRSC07643,-0.661,5.26e5,5.93e5,inactive
lbm (late bloomer),DRSC39509,-1.28,3.61e5,3.76e5,inactive
CG3106,DRSC18279,0.697,7.92e5,7.64e5,inactive
CG3106,DRSC29465,-0.583,6.65e5,8.31e5,inactive
InR (Insulin-like receptor),DRSC16717,-0.686,2.91e5,6.30e5,inactive
InR (Insulin-like receptor),DRSC36685,-1.09,4.57e5,5.18e5,inactive
InR (Insulin-like receptor),DRSC36686,-0.356,5.08e5,5.91e5,inactive
